Measured values published in patent US6107094.
For part of these data: No signal at the amounts used counts as a negative. For part of these data: Where a protein sequence is shown, tags need not be part of it. For part of these data: Construct, isoform or probe ends are uncertain for at least one entry. For part of these data: Weaker means in comparison with the reference protein, sequence or condition of that experiment.

What was measured:
Experiment in all cases: enzyme reaction in vitro
[1] = system: dsRNase activity of T24 cell extract (Homo sapiens); conditions: protein in an extract
[2] = molecular target: T1, RNase H (Escherichia coli) (UniProt P0A7Y4); conditions: label: 32P 5' end of sense RNA
T1 sequence (looked up, limits assumed): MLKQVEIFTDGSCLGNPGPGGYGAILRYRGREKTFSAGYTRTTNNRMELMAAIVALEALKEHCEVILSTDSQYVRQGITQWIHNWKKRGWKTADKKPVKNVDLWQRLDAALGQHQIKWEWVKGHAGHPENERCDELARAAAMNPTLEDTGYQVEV

[3] = system: dsRNase (partially purified from rat liver cytosol, ion exchange and gel filtration) (Rattus norvegicus); conditions: both strands 2'-OMe PS wings flanking 8-ribonucleotide gap; sense gap phosphodiester; Mg2+ required; 10 mM MgCl2, pH 7.5, 37 C; several sites in gap; purified native protein; label: 32P 5' end of sense strand
[4] = system: dsRNase activity of rat liver nuclear extract (Rattus norvegicus); conditions: both strands 2'-OMe PS wings flanking 8-ribonucleotide gap; sense gap phosphodiester; Mg2+ required; 37 C, 240 min; protein in an extract; label: 32P 5' end of sense strand
[5] = antisense strand 2'-OMe wings with ribonucleotide gap, T24 homogenate, only SEQ 8 gapmer supported cleavage, label: 32P target RNA

CCGAAUGUGACCGCCUCCCG / CGGGAGGCGGUCACAUUCGG [c-raf RNA gapmer:RNA duplex (SEQ 3/4)]
activity on this sequence [1, 5]: not active

GGGCGCCGUCGGUGUGG / CCACACCGACGGCGCCC [Ha-ras 9 RNA gapmer:RNA duplex]
activity on this sequence ([2]; antisense strand 2'-OMe wings with 9-ribonucleotide gap, PS throughout, no digestion products): not active | activity on this sequence ([1]; antisense strand 2'-OMe wings with 9-ribonucleotide gap, PS throughout, cytosolic extract, 37 C, cleavage within RNA:RNA portion, nuclear extract comparable, label: 32P 5' end of sense RNA): active

GGGCGCCGUCGGUGUGG / CCACACCGACGGCGCCC [Ha-ras 9 DNA gapmer:RNA duplex]
activity on this sequence ([2]; antisense strand with 9-deoxynucleotide gap, modified wings, cleavage restricted to DNA:RNA portion): active

GGGCGCCGUCGGUGUGG / CCACACCGACGGCGCCC [Ha-ras artificial dsRNase substrate, both strands gapped]
activity on this sequence [3]: active | activity on this sequence [4]: active

AAUGCAUGUCACAGGCGGGA / UCCCGCCUGUGACAUGCAUU [c-raf RNA gapmer:RNA duplex (SEQ 7/8)]
activity on this sequence ([1]; antisense strand 2'-OMe wings with ribonucleotide gap, T24 homogenate, much slower than DNA gapmer, label: 32P target RNA): less active

GGGCGCCGUCGGUGUGG / CCACACCGACGGCGCCC [Ha-ras full oligodeoxynucleotide:RNA duplex]
activity on this sequence ([2]; antisense strand all deoxy (T for U), cleaved, DNA:RNA hybrid): active

UCAAUGGAGCACAUACAGGG / CCCUGUAUGUGCUCCAUUGA [c-raf RNA gapmer:RNA duplex (SEQ 5/6)]
activity on this sequence [1, 5]: not active
